{
  "sequences": {"note": "By UniProt entry, the sequences of proteins in these tests, tags left out.", "UniProt Q0JBA9, entry or part of it": "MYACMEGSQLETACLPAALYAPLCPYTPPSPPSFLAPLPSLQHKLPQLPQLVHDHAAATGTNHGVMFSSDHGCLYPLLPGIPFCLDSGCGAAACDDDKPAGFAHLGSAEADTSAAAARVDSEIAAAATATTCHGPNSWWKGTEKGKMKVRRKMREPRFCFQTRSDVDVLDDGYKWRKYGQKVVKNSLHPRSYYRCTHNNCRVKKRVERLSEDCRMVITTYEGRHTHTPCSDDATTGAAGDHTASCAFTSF"},
  "source": "paper PMC7819943",
  "about": "“Rice protein-binding microarrays: a tool to detect cis-acting elements near promoter regions in rice”",
  "note": "This is one part of the list.",
  "data": [
    {"target": "OsWRKY34 (Oryza sativa, UniProt Q0JBA9 1-250)", "experiment": "protein-binding microarray (RPBM); PBS, 2% BSA, 51.3 ng/ul salmon testes DNA, 50 uM zinc acetate, 200 nM TF, 25 C, 1 h; high values mean tight binding", "conditions": "protein: recombinant; tags: N-terminal polyhistidine and DsRed monomer fusion (pET32a); label: CyDye5-dUTP incorporated in the synthesized complementary strand; 3' TTTTT single-stranded linker to array surface; dsDNA, one strand shown", "summary_of_the_method": "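Binding signal is reported as fluorescence intensity per feature (arbitrary units) from an Axon 4000B scanner. Incubation used 200 nM of each Ni–NTA-purified, N-terminally polyhistidine- and DsRed-fused transcription factor from E. coli BL21-CodonPlus on a double-stranded custom Agilent array for 1 h at 25 °C, with 50 µM zinc acetate in the buffer, followed by washing.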", "values": [
      {"sequence": "ACACTGTAGCCCCTGTACACCCATCAGATCTGGCTTTTTACGGAGTCACCTAGTGCAG", "binding signal": "9400 fluorescence intensity (a.u.)"},
      {"sequence": "GTAGGCAGTAAGTACTATATACTAGTTGGGGTGTATAAGGCGGAGTCACCTAGTGCAG", "binding signal": "8440 fluorescence intensity (a.u.)"},
      {"sequence": "CGATGACTCGTAATTTAATGTTTCATACCTCGCTTTATACCGGAGTCACCTAGTGCAG", "binding signal": "10000 fluorescence intensity (a.u.)"},
      {"sequence": "TTATACTCCTACTTTATATTTTGCTTACAATGCCACATCACGGAGTCACCTAGTGCAG", "binding signal": "8880 fluorescence intensity (a.u.)"},
      {"sequence": "CTACGCCCTAAGTTACATTCTCTACAATATTGTTCTCTAACGGAGTCACCTAGTGCAG", "binding signal": "9890 fluorescence intensity (a.u.)"},
      {"sequence": "ACAACAATTTTGTACTCCCTCTATCCCCATTTTAAATACACGGAGTCACCTAGTGCAG", "binding signal": "8130 fluorescence intensity (a.u.)"},
      {"sequence": "TAGCCATCGCCGTCCAGCGCCACTCCTGCTCGACTCCTTGCGGAGTCACCTAGTGCAG", "binding signal": "8500 fluorescence intensity (a.u.)"},
      {"sequence": "ACGCACTGTTCTTTGTCGCTCCACACTCCACTCTCCCTGACGGAGTCACCTAGTGCAG", "binding signal": "10400 fluorescence intensity (a.u.)"},
      {"sequence": "ATTTCCCGGTTAGTACAATCATTTACACTTGCCAACTGATCGGAGTCACCTAGTGCAG", "binding signal": "8900 fluorescence intensity (a.u.)"},
      {"sequence": "GGAGGGGTCGCTGTTCGTTGTGAAGAGGTGAGTGTTTTAGCGGAGTCACCTAGTGCAG", "binding signal": "9230 fluorescence intensity (a.u.)"},
      {"sequence": "GTTTCCATTCCATTTTATCTCGTGTTTGCAGACAACTAACCGGAGTCACCTAGTGCAG", "binding signal": "8850 fluorescence intensity (a.u.)"},
      {"sequence": "CTCGCTTTCCCGTGCACGGCCAGTGTATATATAGCTCATCCGGAGTCACCTAGTGCAG", "binding signal": "8240 fluorescence intensity (a.u.)"},
      {"sequence": "ATAGAGTGGTATTATTTCCCTTCTTCTTCTTTTATTCGGCCGGAGTCACCTAGTGCAG", "binding signal": "8070 fluorescence intensity (a.u.)"},
      {"sequence": "CAGTTGATACTCATGTTCTGGTTTTCGAATCTAACTTTAACGGAGTCACCTAGTGCAG", "binding signal": "9970 fluorescence intensity (a.u.)"},
      {"sequence": "CGCGCGCGCGTGCGTGCGTGCGTGTGGGTGGGTGGGTGGACGGAGTCACCTAGTGCAG", "binding signal": "11900 fluorescence intensity (a.u.)"},
      {"sequence": "GCCGCACTCCACTTCCCCAACACGCCGCCGCCGCCGCCGCCGGAGTCACCTAGTGCAG", "binding signal": "11300 fluorescence intensity (a.u.)"},
      {"sequence": "GTGTGTTCGGGTGTGGCTCTAGCTGGAGGACGATGCTAGACGGAGTCACCTAGTGCAG", "binding signal": "8100 fluorescence intensity (a.u.)"},
      {"sequence": "TCTCTTGTCTCCTTGTCTCATTTACTTGTTGTATTTATATCGGAGTCACCTAGTGCAG", "binding signal": "8230 fluorescence intensity (a.u.)"},
      {"sequence": "GTTCTAATGTTTTTCCTTGTCTAATACTTTGTTGGCACTTCGGAGTCACCTAGTGCAG", "binding signal": "9240 fluorescence intensity (a.u.)"},
      {"sequence": "ATTGAGCTCCCAATTTCCCAGTGTCATCTTTATACTTTTTCGGAGTCACCTAGTGCAG", "binding signal": "11600 fluorescence intensity (a.u.)"},
      {"sequence": "TACATACTACACTATTAATATCTGGTCCCACCTGTCATACCGGAGTCACCTAGTGCAG", "binding signal": "8960 fluorescence intensity (a.u.)"},
      {"sequence": "AGCTCAAAAGCCTTTTTTGTTTGTTCGCTGCTGCCACTGTCGGAGTCACCTAGTGCAG", "binding signal": "8880 fluorescence intensity (a.u.)"},
      {"sequence": "AAATTTCCAGCCTTTTTTGCGCCCAATTCCATTGGGAGATCGGAGTCACCTAGTGCAG", "binding signal": "8440 fluorescence intensity (a.u.)"},
      {"sequence": "ATTACTTGTCCCATGCAGCTGGACAAAGTACCGTTTGACCCGGAGTCACCTAGTGCAG", "binding signal": "9060 fluorescence intensity (a.u.)"},
      {"sequence": "ACAACCCTCGTACGCGTCCGCTCAACGCACGCGCTCACACCGGAGTCACCTAGTGCAG", "binding signal": "9220 fluorescence intensity (a.u.)"},
      {"sequence": "GTCCTTTGTTCTCATCATTGTTTGCCAAACCAGTGGACTACGGAGTCACCTAGTGCAG", "binding signal": "10700 fluorescence intensity (a.u.)"},
      {"sequence": "AAGTTTCGGCTCACCTCACCACTTCACCAACCTATCTGGCCGGAGTCACCTAGTGCAG", "binding signal": "8500 fluorescence intensity (a.u.)"},
      {"sequence": "GTTTCCTTCCTTGAGCTTGACATGTATTGGTCATTGTTAGCGGAGTCACCTAGTGCAG", "binding signal": "8290 fluorescence intensity (a.u.)"},
      {"sequence": "CCGGCGGTGGCCGGACCTCGCGATCTGCTTTTCTTTTTCTCGGAGTCACCTAGTGCAG", "binding signal": "9710 fluorescence intensity (a.u.)"},
      {"sequence": "TCCTGTGTTTTTTCTGTGTTTTGCAATCCTCTGTTTTACACGGAGTCACCTAGTGCAG", "binding signal": "10900 fluorescence intensity (a.u.)"},
      {"sequence": "CACGTCGCGATTCCGCCTCTGTGCGCGCTGCTGCCCGGGCCGGAGTCACCTAGTGCAG", "binding signal": "8480 fluorescence intensity (a.u.)"},
      {"sequence": "GCGTATAAAACTGGCATCCGACTTCCTTTTGCCTCCGCTGCGGAGTCACCTAGTGCAG", "binding signal": "8440 fluorescence intensity (a.u.)"},
      {"sequence": "CGCGCGTCGGCCCGTCCATCTCCTGTCCTGTCGGTGCTCTCGGAGTCACCTAGTGCAG", "binding signal": "12000 fluorescence intensity (a.u.)"},
      {"sequence": "AAATCCCCAAATCCTCACGCGGCCACTCGATTTGATCATGCGGAGTCACCTAGTGCAG", "binding signal": "8270 fluorescence intensity (a.u.)"},
      {"sequence": "CATGCACCCACACATAGCGTATGTATGTAACCACCGAATACGGAGTCACCTAGTGCAG", "binding signal": "8480 fluorescence intensity (a.u.)"},
      {"sequence": "TATCATTCCGCGTCTCGAACTTTCCACCTCTCCCAAATAACGGAGTCACCTAGTGCAG", "binding signal": "8680 fluorescence intensity (a.u.)"},
      {"sequence": "CCCAGCCCAGCCCGTTATTGCCTCTTTTGACCTAGCCCACCGGAGTCACCTAGTGCAG", "binding signal": "8920 fluorescence intensity (a.u.)"},
      {"sequence": "AGTCGGGTAGGGTGTGCGTGTGTGCGTTCATAGGGGTGTGCGGAGTCACCTAGTGCAG", "binding signal": "8740 fluorescence intensity (a.u.)"},
      {"sequence": "TATTCTTCTCTGCTTGCTTGCTGCTATAGATAGATCCTTCCGGAGTCACCTAGTGCAG", "binding signal": "9700 fluorescence intensity (a.u.)"},
      {"sequence": "GTAGTATTTCTCACCTGCTACACGGGCTTACCCAGACACTCGGAGTCACCTAGTGCAG", "binding signal": "9580 fluorescence intensity (a.u.)"},
      {"sequence": "CCGCCCACCTCCTCCCCGACGGCCTCGTCTCCTACCTCGCCGGAGTCACCTAGTGCAG", "binding signal": "8180 fluorescence intensity (a.u.)"},
      {"sequence": "AGACCACCCTAACTCAGCAACCATTCCGCCCACTAGCTTTCGGAGTCACCTAGTGCAG", "binding signal": "9110 fluorescence intensity (a.u.)"}
    ]}
  ]
}
